# According to the supplement of paper PMC8728848:
# The list shows a part of the results.
# Key:
# Assay in all cases: glycan array binding signal (z-score within array); higher = stronger binding
# Details in all cases: glycan notation: IUPAC condensed, linker removed
# [1] = molecular target: Man(a1-2)Man(a1-3)[Man(a1-2)Man(a1-6)]Man
# Outline: (§1)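 Arrays were curated from the Consortium for Functional Glycomics database, 3228 in total, and kept only where the protein sequence was available. Binding is expressed as a within-array Z-score. This score was averaged across arrays of the same protein sequence at different concentrations or buffers and across linkers, and negative values can be read as non-binding.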
# [2] = molecular target: Man(a1-2)Man(a1-3)[Man(a1-2)Man(a1-6)]Man(a1-6)[Man(a1-2)Man(a1-2)Man(a1-3)]Man
# Outline: as §1
# [3] = molecular target: Man(a1-2)Man(a1-3)[Man(a1-2)Man(a1-6)]Man(a1-6)[Man(a1-2)Man(a1-2)Man(a1-3)]Man(b1-4)GlcNAc(b1-4)GlcNAc
# Outline: as §1
# [4] = molecular target: Man(a1-2)Man(a1-3)[Man(a1-6)]Man(a1-6)[Man(a1-2)Man(a1-3)]Man(b1-4)GlcNAc(b1-4)GlcNAc
# Outline: as §1
# [5] = molecular target: Man(a1-2)Man(a1-6)[Man(a1-3)]Man(a1-6)[Man(a1-2)Man(a1-2)Man(a1-3)]Man
# Outline: as §1
# [6] = molecular target: Man(a1-2)Man(a1-6)[Man(a1-3)]Man(a1-6)[Man(a1-2)Man(a1-2)Man(a1-3)]Man(b1-4)GlcNAc(b1-4)GlcNAc
# Outline: as §1
# Man(a1-3)[Man(a1-6)]Man = molecular target: Man(a1-3)[Man(a1-6)]Man
# Outline: as §1
# [7] = molecular target: Man(a1-3)[Man(a1-6)]Man(a1-6)[Man(a1-2)Man(a1-3)]Man(b1-4)GlcNAc(b1-4)GlcNAc
# Outline: as §1
# [8] = molecular target: Man(a1-3)[Man(a1-6)]Man(a1-6)[Man(a1-3)]Man
# Outline: as §1
# [9] = molecular target: Man(a1-3)[Man(a1-6)]Man(a1-6)[Man(a1-3)]Man(b1-4)GlcNAc(b1-4)GlcNAc
# Outline: as §1
# [10] = molecular target: Man(a1-3)[Man(a1-6)]Man(b1-4)GlcNAc(b1-4)GlcNAc
# Outline: as §1
# [11] = molecular target: Man(a1-3)[Man(a1-6)]Man(b1-4)GlcNAc(b1-4)[Fuc(a1-6)]GlcNAc
# Outline: as §1
# Man(a1-6)Man = molecular target: Man(a1-6)Man
# Outline: as §1
# Man(b1-4)GlcNAc = molecular target: Man(b1-4)GlcNAc
# Outline: as §1
# MurNAc(b1-4)GlcNAc = molecular target: MurNAc(b1-4)GlcNAc
# Outline: as §1
# Neu5Ac(a2-3)Gal = molecular target: Neu5Ac(a2-3)Gal
# Outline: as §1
# [12] = molecular target: Neu5Ac(a2-3)Gal(b1-3)GalNAc
# Outline: as §1
# [13] = molecular target: Neu5Ac(a2-3)Gal(b1-3)GalNAc(b1-3)Gal(a1-4)Gal(b1-4)Glc
# Outline: as §1
# [14] = molecular target: Neu5Ac(a2-3)Gal(b1-3)GalNAc(b1-4)Gal(b1-4)Glc
# Outline: as §1
# [15] = molecular target: Neu5Ac(a2-3)Gal(b1-3)GalNAc(b1-4)[Neu5Ac(a2-3)]Gal(b1-4)Glc
# Outline: as §1
# [16] = molecular target: Neu5Ac(a2-3)Gal(b1-3)GalNAc(b1-4)[Neu5Ac(a2-8)Neu5Ac(a2-3)]Gal(b1-4)Glc
# Outline: as §1
# [17] = molecular target: Neu5Ac(a2-3)Gal(b1-3)GalNAc6S
# Outline: as §1
# [18] = molecular target: Neu5Ac(a2-3)Gal(b1-3)GlcNAc
# Outline: as §1
# [19] = molecular target: Neu5Ac(a2-3)Gal(b1-3)GlcNAc(b1-2)Man
# Outline: as §1
# [20] = molecular target: Neu5Ac(a2-3)Gal(b1-3)GlcNAc(b1-2)Man(a1-3)[GlcNAc(b1-4)][Neu5Ac(a2-3)Gal(b1-3)GlcNAc(b1-2)Man(a1-6)]Man(b1-4)GlcNAc(b1-4)GlcNAc
# Outline: as §1
# [21] = molecular target: Neu5Ac(a2-3)Gal(b1-3)GlcNAc(b1-2)Man(a1-3)[Neu5Ac(a2-3)Gal(b1-3)GlcNAc(b1-2)Man(a1-6)]Man(b1-4)GlcNAc(b1-4)GlcNAc
# Outline: as §1
# [22] = molecular target: Neu5Ac(a2-3)Gal(b1-3)GlcNAc(b1-2)[Neu5Ac(a2-3)Gal(b1-3)GlcNAc(b1-4)]Man(a1-6)[Neu5Ac(a2-3)Gal(b1-3)GlcNAc(b1-2)Man(a1-3)]Man(b1-4)GlcNAc(b1-4)GlcNAc
# Outline: as §1
# [23] = molecular target: Neu5Ac(a2-3)Gal(b1-3)GlcNAc(b1-3)Gal(b1-3)GlcNAc
# Outline: as §1
# [24] = molecular target: Neu5Ac(a2-3)Gal(b1-3)GlcNAc(b1-3)Gal(b1-4)GlcNAc
# Outline: as §1
# [25] = molecular target: Neu5Ac(a2-3)Gal(b1-3)GlcNAc(b1-3)GalNAc
# Outline: as §1
# [26] = molecular target: Neu5Ac(a2-3)Gal(b1-3)GlcNAc(b1-6)GalNAc
# Outline: as §1
# [27] = molecular target: Neu5Ac(a2-3)Gal(b1-3)GlcNAc6S
# Outline: as §1
# [28] = molecular target: Neu5Ac(a2-3)Gal(b1-3)[Fuc(a1-4)]GlcNAc
# Outline: as §1
# [29] = molecular target: Neu5Ac(a2-3)Gal(b1-3)[Fuc(a1-4)]GlcNAc(b1-3)Gal(b1-3)[Fuc(a1-4)]GlcNAc
# Outline: as §1
# [30] = molecular target: Neu5Ac(a2-3)Gal(b1-3)[Fuc(a1-4)]GlcNAc(b1-3)Gal(b1-4)[Fuc(a1-3)]GlcNAc
# Outline: as §1
# [31] = molecular target: Neu5Ac(a2-3)Gal(b1-3)[GlcNAc(b1-6)]GalNAc
# Outline: as §1
# [32] = molecular target: Neu5Ac(a2-3)Gal(b1-3)[Neu5Ac(a2-6)]GalNAc
# Outline: as §1
# [33] = molecular target: Neu5Ac(a2-3)Gal(b1-3)[Neu5Ac(a2-6)]GlcNAc(b1-3)[Fuc(a1-3)[Gal(b1-4)]GlcNAc(b1-6)]Gal(b1-4)Glc
# Outline: as §1
# [34] = molecular target: Neu5Ac(a2-3)Gal(b1-3)]Neu5Ac(a2-3)Gal(b1-4)]GlcNAc
# Outline: as §1
# Neu5Ac(a2-3)Gal(b1-4)Glc = molecular target: Neu5Ac(a2-3)Gal(b1-4)Glc
# Outline: as §1
# [35] = molecular target: Neu5Ac(a2-3)Gal(b1-4)GlcNAc
# Outline: as §1
# [36] = molecular target: Neu5Ac(a2-3)Gal(b1-4)GlcNAc(b1-2)Man
# Outline: as §1
# [37] = molecular target: Neu5Ac(a2-3)Gal(b1-4)GlcNAc(b1-2)Man(a1-3)[GlcNAc(b1-4)][Neu5Ac(a2-3)Gal(b1-4)GlcNAc(b1-2)Man(a1-6)]Man(b1-4)GlcNAc(b1-4)GlcNAc
# Outline: as §1
# [38] = molecular target: Neu5Ac(a2-3)Gal(b1-4)GlcNAc(b1-2)Man(a1-3)[Neu5Ac(a2-3)Gal(b1-4)GlcNAc(b1-2)Man(a1-6)]Man(b1-4)GlcNAc(b1-4)GlcNAc
# Outline: as §1
# [39] = molecular target: Neu5Ac(a2-3)Gal(b1-4)GlcNAc(b1-2)Man(a1-3)[Neu5Ac(a2-3)Gal(b1-4)GlcNAc(b1-2)Man(a1-6)]Man(b1-4)GlcNAc(b1-4)[Fuc(a1-6)]GlcNAc
# Outline: as §1
binder,measurement,setting,value
"XTP3-B-MRH2 (Homo sapiens), Q96DZ1 (protein) EFLSGSYCFRGGVGWWKYEFCYGKHVHQYHEDKDSGKTSVVVGTWNQEEHIEWAKKNTARAYHLQDDGTQTVRMVSHFYGNGDICDITDKPRQVTVKLKCKESDSPHAVTVYMLEPHSCQYILGVESPVICKILDTA",glycan array binding signal (z-score),[1],0.743
same,glycan array binding signal (z-score),[2],0.213
same,glycan array binding signal (z-score),[3],-0.61
same,glycan array binding signal (z-score),[4],-1.13
same,glycan array binding signal (z-score),[5],-0.456
same,glycan array binding signal (z-score),[6],-0.65
same,glycan array binding signal (z-score),Man(a1-3)[Man(a1-6)]Man,-0.196
same,glycan array binding signal (z-score),[7],0.608
same,glycan array binding signal (z-score),[8],0.221
same,glycan array binding signal (z-score),[9],1.3
same,glycan array binding signal (z-score),[10],0.243
same,glycan array binding signal (z-score),[11],-0.07
same,glycan array binding signal (z-score),Man(a1-6)Man,-1.23
same,glycan array binding signal (z-score),Man(b1-4)GlcNAc,0.102
same,glycan array binding signal (z-score),MurNAc(b1-4)GlcNAc,-0.655
same,glycan array binding signal (z-score),Neu5Ac(a2-3)Gal,-0.349
same,glycan array binding signal (z-score),[12],0.553
same,glycan array binding signal (z-score),[13],0.229
same,glycan array binding signal (z-score),[14],-0.15
same,glycan array binding signal (z-score),[15],-0.211
same,glycan array binding signal (z-score),[16],-0.195
same,glycan array binding signal (z-score),[17],-0.933
same,glycan array binding signal (z-score),[18],-0.922
same,glycan array binding signal (z-score),[19],-0.328
same,glycan array binding signal (z-score),[20],-0.001
same,glycan array binding signal (z-score),[21],1.01
same,glycan array binding signal (z-score),[22],0.771
same,glycan array binding signal (z-score),[23],-1.1
same,glycan array binding signal (z-score),[24],-0.591
same,glycan array binding signal (z-score),[25],-1.17
same,glycan array binding signal (z-score),[26],1.44
same,glycan array binding signal (z-score),[27],1.04
same,glycan array binding signal (z-score),[28],-0.125
same,glycan array binding signal (z-score),[29],-0.226
same,glycan array binding signal (z-score),[30],2.02
same,glycan array binding signal (z-score),[31],-1.04
same,glycan array binding signal (z-score),[32],-0.177
same,glycan array binding signal (z-score),[33],-0.373
same,glycan array binding signal (z-score),[34],-0.154
same,glycan array binding signal (z-score),Neu5Ac(a2-3)Gal(b1-4)Glc,1.35
same,glycan array binding signal (z-score),[35],-0.101
same,glycan array binding signal (z-score),[36],-0.332
same,glycan array binding signal (z-score),[37],-0.074
same,glycan array binding signal (z-score),[38],-1.63
same,glycan array binding signal (z-score),[39],0.635

# Rewritten tab-delimited: part of the list above.
binder	measurement	setting	value
XTP3-B-MRH2 (Homo sapiens), Q96DZ1 (protein) EFLSGSYCFRGGVGWWKYEFCYGKHVHQYHEDKDSGKTSVVVGTWNQEEHIEWAKKNTARAYHLQDDGTQTVRMVSHFYGNGDICDITDKPRQVTVKLKCKESDSPHAVTVYMLEPHSCQYILGVESPVICKILDTA	glycan array binding signal (z-score)	[6]	-0.65
same	glycan array binding signal (z-score)	[14]	-0.15
